According to the supplement of paper PMC6411743:
± gives the standard deviation of the averaged measurements. The list shows a part of the results, in another mix than the full data. Some of the results follow.

Sequences of proteins named here, by UniProt entry; tags and fusion partners are left off. A change or cut given only in a name is not applied to a line headed by its entry.
UniProt Q9H8E8: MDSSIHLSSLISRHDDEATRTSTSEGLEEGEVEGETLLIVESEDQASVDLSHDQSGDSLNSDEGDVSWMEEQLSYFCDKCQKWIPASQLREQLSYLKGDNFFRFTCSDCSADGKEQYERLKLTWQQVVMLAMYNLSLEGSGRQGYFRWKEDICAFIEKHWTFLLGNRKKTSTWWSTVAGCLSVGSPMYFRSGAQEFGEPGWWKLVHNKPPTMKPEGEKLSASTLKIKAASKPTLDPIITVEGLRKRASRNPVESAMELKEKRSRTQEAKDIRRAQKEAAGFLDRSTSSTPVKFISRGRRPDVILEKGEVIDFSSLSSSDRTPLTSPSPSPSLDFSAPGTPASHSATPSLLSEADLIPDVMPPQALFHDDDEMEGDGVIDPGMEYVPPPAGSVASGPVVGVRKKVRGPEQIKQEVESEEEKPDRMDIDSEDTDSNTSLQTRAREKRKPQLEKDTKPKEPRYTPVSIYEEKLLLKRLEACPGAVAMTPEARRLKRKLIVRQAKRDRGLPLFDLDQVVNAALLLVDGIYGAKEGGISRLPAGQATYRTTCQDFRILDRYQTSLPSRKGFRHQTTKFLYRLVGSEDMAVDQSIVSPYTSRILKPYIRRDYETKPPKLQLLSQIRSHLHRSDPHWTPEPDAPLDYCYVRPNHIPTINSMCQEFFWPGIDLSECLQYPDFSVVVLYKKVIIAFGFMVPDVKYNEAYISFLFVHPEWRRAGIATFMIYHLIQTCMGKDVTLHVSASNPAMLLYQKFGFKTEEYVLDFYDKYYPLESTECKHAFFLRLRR
UniProt Q8N3Z3: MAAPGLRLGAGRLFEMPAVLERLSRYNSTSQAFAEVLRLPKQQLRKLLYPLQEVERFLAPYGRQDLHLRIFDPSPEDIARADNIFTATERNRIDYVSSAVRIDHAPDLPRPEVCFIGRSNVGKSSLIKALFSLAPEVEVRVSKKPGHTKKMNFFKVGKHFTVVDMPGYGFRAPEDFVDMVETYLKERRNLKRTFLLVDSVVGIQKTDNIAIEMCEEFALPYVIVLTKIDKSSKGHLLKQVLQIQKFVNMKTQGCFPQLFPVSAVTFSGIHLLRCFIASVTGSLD
UniProt Q6DD87: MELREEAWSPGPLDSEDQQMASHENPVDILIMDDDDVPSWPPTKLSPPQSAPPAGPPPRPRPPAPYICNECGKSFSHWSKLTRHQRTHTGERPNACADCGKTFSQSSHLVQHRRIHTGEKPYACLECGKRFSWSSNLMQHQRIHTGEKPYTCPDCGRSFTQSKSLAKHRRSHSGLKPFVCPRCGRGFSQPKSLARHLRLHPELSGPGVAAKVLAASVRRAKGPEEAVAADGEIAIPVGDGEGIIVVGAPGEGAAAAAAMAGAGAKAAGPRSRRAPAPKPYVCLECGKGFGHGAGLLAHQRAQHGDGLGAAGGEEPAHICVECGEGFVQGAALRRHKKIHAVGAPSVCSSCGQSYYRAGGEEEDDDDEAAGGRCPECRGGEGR
UniProt Q9Y657, whole entry: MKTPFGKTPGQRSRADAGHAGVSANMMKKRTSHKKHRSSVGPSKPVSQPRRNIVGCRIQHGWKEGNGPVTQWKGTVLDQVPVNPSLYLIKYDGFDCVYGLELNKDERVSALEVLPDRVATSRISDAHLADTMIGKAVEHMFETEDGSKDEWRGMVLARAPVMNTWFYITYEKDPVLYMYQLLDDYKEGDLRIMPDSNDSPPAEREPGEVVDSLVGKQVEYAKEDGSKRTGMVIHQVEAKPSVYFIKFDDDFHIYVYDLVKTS
UniProt Q9Y295: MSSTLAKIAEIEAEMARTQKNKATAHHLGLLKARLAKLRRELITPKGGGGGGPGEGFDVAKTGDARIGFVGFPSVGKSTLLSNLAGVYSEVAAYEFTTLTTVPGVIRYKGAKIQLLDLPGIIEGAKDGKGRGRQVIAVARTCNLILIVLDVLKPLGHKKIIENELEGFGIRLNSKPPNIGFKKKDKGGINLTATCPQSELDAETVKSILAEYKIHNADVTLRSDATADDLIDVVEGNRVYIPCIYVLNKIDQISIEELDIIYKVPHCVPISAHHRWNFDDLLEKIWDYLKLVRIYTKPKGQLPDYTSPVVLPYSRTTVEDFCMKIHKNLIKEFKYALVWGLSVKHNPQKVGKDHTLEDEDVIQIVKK
UniProt Q9UPU5: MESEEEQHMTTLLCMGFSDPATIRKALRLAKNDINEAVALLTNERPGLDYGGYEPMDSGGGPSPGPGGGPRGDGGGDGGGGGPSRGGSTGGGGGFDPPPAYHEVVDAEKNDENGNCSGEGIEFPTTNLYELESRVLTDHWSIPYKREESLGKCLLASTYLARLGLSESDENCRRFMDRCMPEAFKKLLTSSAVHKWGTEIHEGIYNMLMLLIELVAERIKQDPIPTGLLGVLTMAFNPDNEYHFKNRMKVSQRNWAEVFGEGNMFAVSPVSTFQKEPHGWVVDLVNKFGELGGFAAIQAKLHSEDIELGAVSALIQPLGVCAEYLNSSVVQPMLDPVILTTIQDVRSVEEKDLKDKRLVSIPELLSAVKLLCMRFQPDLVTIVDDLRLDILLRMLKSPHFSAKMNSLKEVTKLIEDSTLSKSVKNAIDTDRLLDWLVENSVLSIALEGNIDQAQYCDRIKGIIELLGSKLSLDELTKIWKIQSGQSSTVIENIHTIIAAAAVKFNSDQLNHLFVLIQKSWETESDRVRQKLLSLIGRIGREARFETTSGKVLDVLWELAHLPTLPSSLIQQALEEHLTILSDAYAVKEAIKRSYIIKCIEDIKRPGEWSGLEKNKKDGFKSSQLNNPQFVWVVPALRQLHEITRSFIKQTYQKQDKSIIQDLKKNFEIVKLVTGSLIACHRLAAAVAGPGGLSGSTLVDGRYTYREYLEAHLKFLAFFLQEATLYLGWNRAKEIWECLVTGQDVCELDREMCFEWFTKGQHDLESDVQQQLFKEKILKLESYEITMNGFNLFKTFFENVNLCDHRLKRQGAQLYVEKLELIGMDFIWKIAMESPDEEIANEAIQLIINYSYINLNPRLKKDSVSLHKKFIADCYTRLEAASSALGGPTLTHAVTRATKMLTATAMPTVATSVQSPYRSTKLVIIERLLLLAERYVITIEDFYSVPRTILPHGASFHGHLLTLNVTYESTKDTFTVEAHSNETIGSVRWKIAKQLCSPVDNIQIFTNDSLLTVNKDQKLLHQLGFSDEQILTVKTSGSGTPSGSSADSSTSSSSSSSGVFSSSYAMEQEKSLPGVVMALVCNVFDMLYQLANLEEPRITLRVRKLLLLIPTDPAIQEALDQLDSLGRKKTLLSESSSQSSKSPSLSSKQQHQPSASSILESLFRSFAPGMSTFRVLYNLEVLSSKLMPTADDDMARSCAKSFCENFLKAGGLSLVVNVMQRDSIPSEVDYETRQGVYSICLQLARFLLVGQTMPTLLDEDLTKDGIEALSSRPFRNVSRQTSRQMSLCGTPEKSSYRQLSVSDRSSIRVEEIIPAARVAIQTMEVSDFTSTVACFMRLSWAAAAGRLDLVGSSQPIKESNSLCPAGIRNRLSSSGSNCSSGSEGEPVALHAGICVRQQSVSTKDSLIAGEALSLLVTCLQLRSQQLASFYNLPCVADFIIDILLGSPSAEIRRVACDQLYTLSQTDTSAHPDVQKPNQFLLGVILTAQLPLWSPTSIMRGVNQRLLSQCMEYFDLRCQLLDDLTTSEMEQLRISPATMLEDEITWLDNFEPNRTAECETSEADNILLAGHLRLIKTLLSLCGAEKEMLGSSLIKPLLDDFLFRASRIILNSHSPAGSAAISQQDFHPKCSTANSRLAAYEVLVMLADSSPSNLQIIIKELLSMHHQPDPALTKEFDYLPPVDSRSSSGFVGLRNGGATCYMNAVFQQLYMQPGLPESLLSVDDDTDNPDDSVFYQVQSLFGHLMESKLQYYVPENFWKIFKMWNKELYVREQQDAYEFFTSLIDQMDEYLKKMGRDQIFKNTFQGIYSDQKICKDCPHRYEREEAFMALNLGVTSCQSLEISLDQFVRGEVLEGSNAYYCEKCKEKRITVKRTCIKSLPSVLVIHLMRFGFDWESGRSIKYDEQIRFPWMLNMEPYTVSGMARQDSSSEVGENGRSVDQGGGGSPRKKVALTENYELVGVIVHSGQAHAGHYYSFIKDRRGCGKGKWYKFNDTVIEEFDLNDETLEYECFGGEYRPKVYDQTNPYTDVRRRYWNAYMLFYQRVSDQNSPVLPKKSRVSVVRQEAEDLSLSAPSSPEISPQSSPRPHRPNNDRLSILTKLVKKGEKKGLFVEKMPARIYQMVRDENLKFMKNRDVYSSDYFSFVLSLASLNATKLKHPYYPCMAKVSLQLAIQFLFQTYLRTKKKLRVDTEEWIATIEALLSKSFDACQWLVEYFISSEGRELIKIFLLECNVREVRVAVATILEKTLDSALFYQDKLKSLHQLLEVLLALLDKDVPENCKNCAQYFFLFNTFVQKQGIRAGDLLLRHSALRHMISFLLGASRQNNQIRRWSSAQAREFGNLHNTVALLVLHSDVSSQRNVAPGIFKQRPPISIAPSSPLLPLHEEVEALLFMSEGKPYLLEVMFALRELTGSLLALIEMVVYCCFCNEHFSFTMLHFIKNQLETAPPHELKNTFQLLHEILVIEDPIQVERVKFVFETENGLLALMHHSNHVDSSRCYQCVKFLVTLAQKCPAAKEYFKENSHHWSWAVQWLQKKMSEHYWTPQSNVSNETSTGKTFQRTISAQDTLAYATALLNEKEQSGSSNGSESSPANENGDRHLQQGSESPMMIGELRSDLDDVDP
UniProt Q9Y385: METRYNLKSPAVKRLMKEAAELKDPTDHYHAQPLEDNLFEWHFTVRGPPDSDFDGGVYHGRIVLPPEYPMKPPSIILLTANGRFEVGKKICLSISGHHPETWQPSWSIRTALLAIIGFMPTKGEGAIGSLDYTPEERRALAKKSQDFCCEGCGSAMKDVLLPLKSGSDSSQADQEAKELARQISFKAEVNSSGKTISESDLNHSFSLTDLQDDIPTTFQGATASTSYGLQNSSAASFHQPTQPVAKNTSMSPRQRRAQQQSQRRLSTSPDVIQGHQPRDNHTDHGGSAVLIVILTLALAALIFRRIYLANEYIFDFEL
UniProt Q9Y265, whole entry: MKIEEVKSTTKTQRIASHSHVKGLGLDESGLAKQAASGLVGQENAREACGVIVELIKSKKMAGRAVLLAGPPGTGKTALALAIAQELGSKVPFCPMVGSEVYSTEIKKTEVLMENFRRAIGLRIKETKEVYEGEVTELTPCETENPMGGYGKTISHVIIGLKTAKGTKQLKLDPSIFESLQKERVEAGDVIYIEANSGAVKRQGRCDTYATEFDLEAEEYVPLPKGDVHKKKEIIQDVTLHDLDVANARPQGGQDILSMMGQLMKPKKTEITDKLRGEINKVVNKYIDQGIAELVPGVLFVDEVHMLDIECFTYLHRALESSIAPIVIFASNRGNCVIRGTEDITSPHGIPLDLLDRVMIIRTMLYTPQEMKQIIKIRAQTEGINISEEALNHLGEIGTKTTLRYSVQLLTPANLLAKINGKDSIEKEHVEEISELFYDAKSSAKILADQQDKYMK
UniProt Q9Y2W1: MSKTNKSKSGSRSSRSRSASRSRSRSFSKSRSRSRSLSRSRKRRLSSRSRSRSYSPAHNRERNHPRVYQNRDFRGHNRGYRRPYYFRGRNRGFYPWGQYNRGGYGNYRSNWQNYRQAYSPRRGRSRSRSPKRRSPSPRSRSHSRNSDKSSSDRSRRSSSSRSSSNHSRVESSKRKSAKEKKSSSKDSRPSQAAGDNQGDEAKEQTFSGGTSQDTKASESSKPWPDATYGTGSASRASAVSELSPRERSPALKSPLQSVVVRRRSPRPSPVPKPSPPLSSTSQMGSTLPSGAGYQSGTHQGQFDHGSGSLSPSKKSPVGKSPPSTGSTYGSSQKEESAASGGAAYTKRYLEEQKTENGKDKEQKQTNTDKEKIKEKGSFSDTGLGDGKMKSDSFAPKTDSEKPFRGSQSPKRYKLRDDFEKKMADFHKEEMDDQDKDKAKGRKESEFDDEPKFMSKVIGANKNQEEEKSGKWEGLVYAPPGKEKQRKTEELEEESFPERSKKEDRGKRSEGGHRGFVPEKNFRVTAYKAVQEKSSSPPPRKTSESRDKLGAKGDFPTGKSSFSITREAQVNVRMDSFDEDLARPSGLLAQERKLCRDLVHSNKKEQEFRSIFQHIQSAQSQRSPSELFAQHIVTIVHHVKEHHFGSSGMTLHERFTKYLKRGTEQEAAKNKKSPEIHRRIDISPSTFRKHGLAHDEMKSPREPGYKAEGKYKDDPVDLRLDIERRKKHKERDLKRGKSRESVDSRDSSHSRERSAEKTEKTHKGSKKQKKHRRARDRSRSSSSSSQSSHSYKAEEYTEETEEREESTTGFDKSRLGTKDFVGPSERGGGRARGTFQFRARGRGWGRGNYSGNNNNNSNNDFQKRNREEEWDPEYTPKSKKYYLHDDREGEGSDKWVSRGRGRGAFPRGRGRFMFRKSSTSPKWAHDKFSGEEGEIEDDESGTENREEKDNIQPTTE

Assays:
[1] = compound: Nc1ncnc2c1ncn2[C@@H]1O[C@H](COP(=O)(O)OP(=O)(O)NP(=O)(O)O)[C@@H](O)[C@H]1O [adenylyl imidodiphosphate]; assay: NP40-soluble protein abundance relative to vehicle (solubility fold change) (ratio); higher = more soluble protein in presence of AMP-PNP
Procedure, shortened: (§1)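 Each value is a fold change relative to the detergent-processed vehicle, calculated per replicate from vsn-normalised intensities. Jurkat crude lysate received eight concentrations (0.1 to 10 mM) for 10 min at room temperature and 3 min at 37 °C, then was solubilised in 0.8% NP40 with benzonase (60 min, 4 °C). The ultracentrifuged supernatant was TMT-labelled and run by LC-MS/MS in three independent experiments.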

guanosine triphosphate = compound: Nc1nc2c(ncn2[C@@H]2O[C@H](COP(=O)(O)OP(=O)(O)OP(=O)(O)O)[C@@H](O)[C@H]2O)c(=O)[nH]1 [guanosine triphosphate]; assay: NP40-soluble protein abundance relative to vehicle (solubility fold change) (ratio); higher = more soluble protein in presence of GTP
Procedure, shortened: as §1

Target	NP40-soluble protein abundance ([1]; concentration: 1mM)	NP40-soluble protein abundance ([1]; concentration: 2mM)	NP40-soluble protein abundance ([1]; concentration: 4mM)	NP40-soluble protein abundance ([1]; concentration: 6mM)	NP40-soluble protein abundance ([1]; concentration: 8mM)	NP40-soluble protein abundance ([1]; concentration: 10mM)	NP40-soluble protein abundance (guanosine triphosphate; concentration: 0.1mM)	NP40-soluble protein abundance (guanosine triphosphate; concentration: 0.5mM)	NP40-soluble protein abundance (guanosine triphosphate; concentration: 1mM)	NP40-soluble protein abundance (guanosine triphosphate; concentration: 2mM)	NP40-soluble protein abundance (guanosine triphosphate; concentration: 4mM)	NP40-soluble protein abundance (guanosine triphosphate; concentration: 6mM)	NP40-soluble protein abundance (guanosine triphosphate; concentration: 8mM)	NP40-soluble protein abundance (guanosine triphosphate; concentration: 10mM)
A0A087WTU9|A0A087WZY3|Q8TCU4 and related entries (UniProt Q8TCU4)	0.934 ± 0.032	1.01 ± 0.084	0.924 ± 0.08	1 ± 0.11	0.904 ± 0.041	0.996 ± 0.14	–	–	–	–	–	–	–	–
A0A024R7E8|K7EMV4 and related entries (UniProt P60002)	1.08 ± 0.027	1.14 ± 0.044	1.1 ± 0.024	1.14 ± 0.071	1.14 ± 0.066	1.2 ± 0.067	–	–	–	–	–	–	–	–
A0A075B6H4|Q9H8E8 (UniProt Q9H8E8)	1.01 ± 0.015	1.05 ± 0.04	1.03 ± 0.094	1.14 ± 0.084	1.11 ± 0.03	1.13 ± 0.14	–	–	–	–	–	–	–	–
A0A087WUP3|F8WBY6 and related entries (UniProt Q8N3Z3)	0.978 ± 0.0038	0.968 ± 0.016	0.98776 ± 0.00061	0.99 ± 0.016	0.9918 ± 0.0081	1.003 ± 0.0086	–	–	–	–	–	–	–	–
A0A087WUD1|Q6DD87 (UniProt Q6DD87)	0.9866 ± 0.007	0.986 ± 0.029	0.977 ± 0.022	0.985 ± 0.046	0.983 ± 0.027	0.994 ± 0.048	–	–	–	–	–	–	–	–
A0A075B6T1|Q9C0C7 and related entries (UniProt Q9C0C7)	0.983 ± 0.026	0.976 ± 0.015	0.977 ± 0.014	0.954 ± 0.025	0.983 ± 0.028	0.962 ± 0.025	–	–	–	–	–	–	–	–
ZC3H4 (UniProt Q9UPT8)	–	–	–	–	–	–	0.924 ± 0.044	0.924 ± 0.062	0.997 ± 0.018	0.967 ± 0.059	0.974 ± 0.061	0.994 ± 0.056	1.04 ± 0.051	1.04 ± 0.06
A0A087WW14|Q0VDG4 and related entries (UniProt Q0VDG4)	0.958 ± 0.022	0.943 ± 0.026	0.972 ± 0.023	0.966 ± 0.021	0.978 ± 0.045	0.963 ± 0.026	–	–	–	–	–	–	–	–
UniProt Q9UNS1 and related entries	–	–	–	–	–	–	0.947 ± 0.028	0.965 ± 0.032	0.969 ± 0.037	0.9414 ± 0.0033	0.948 ± 0.0033	0.934 ± 0.02	0.952 ± 0.042	0.961 ± 0.028
UniProt Q9UNN5 and related entries	–	–	–	–	–	–	0.995 ± 0.081	0.997 ± 0.077	0.95 ± 0.099	0.945 ± 0.089	0.924 ± 0.092	0.915 ± 0.082	0.908 ± 0.081	0.876 ± 0.089
USP20 (UniProt Q9Y2K6)	–	–	–	–	–	–	1.08 ± 0.068	1.05 ± 0.17	1.06 ± 0.092	1.08 ± 0.1	1.04 ± 0.13	1.07 ± 0.13	1.05 ± 0.12	1 ± 0.087
SPIN1 (UniProt Q9Y657)	–	–	–	–	–	–	0.968 ± 0.028	0.994 ± 0.067	0.972 ± 0.026	1 ± 0.061	1.03 ± 0.028	1.07 ± 0.055	1.09 ± 0.07	1.16 ± 0.051
CHMP3 (UniProt Q9Y3E7)	–	–	–	–	–	–	1.05 ± 0.09	0.991 ± 0.069	1.09 ± 0.085	1.18 ± 0.063	1.15 ± 0.084	1.09 ± 0.16	1.03 ± 0.17	1.17 ± 0.14
DRG1 (UniProt Q9Y295)	–	–	–	–	–	–	0.958 ± 0.02	0.968 ± 0.028	0.896 ± 0.035	0.884 ± 0.035	0.964 ± 0.076	0.926 ± 0.044	0.93 ± 0.07	0.882 ± 0.077
UniProt Q9Y4D1 and related entries	–	–	–	–	–	–	0.96 ± 0.013	1.06 ± 0.03	1.02 ± 0.011	1.034 ± 0.0039	1.01 ± 0.027	1.03 ± 0.036	1.03 ± 0.15	0.999 ± 0.12
AP3M1 (UniProt Q9Y2T2)	–	–	–	–	–	–	0.967 ± 0.058	1.02 ± 0.11	1.04 ± 0.077	0.993 ± 0.046	1 ± 0.093	0.974 ± 0.052	0.895 ± 0.026	0.885 ± 0.087
USP24 (UniProt Q9UPU5)	–	–	–	–	–	–	1.05 ± 0.078	1.07 ± 0.092	0.969 ± 0.073	0.971 ± 0.12	0.958 ± 0.079	0.943 ± 0.08	0.905 ± 0.05	0.867 ± 0.08
UniProt Q9Y680 and related entries	–	–	–	–	–	–	0.972 ± 0.026	0.946 ± 0.06	1.07 ± 0.047	1.02 ± 0.1	0.966 ± 0.047	0.957 ± 0.059	1.03 ± 0.076	0.977 ± 0.043
CHMP2B (UniProt Q9UQN3)	–	–	–	–	–	–	0.905 ± 0.051	0.909 ± 0.092	0.989 ± 0.079	0.931 ± 0.15	0.938 ± 0.12	0.967 ± 0.14	0.953 ± 0.085	0.932 ± 0.11
UBE2J1 (UniProt Q9Y385)	–	–	–	–	–	–	0.923 ± 0.015	0.896 ± 0.022	0.936 ± 0.056	0.908 ± 0.087	0.91 ± 0.11	0.9 ± 0.13	0.883 ± 0.019	0.883 ± 0.092
BCS1L (UniProt Q9Y276)	–	–	–	–	–	–	1.08 ± 0.095	1.1 ± 0.15	0.982 ± 0.086	1.13 ± 0.22	1 ± 0.16	1.01 ± 0.17	0.943 ± 0.054	0.966 ± 0.14
MRPS18B (UniProt Q9Y676)	–	–	–	–	–	–	0.939 ± 0.12	0.991 ± 0.11	1.18 ± 0.3	1.28 ± 0.32	1.29 ± 0.31	1.27 ± 0.3	1.22 ± 0.29	1.29 ± 0.42
RUVBL1 (UniProt Q9Y265)	–	–	–	–	–	–	1.04 ± 0.067	1.12 ± 0.11	1.09 ± 0.12	1.14 ± 0.16	1.18 ± 0.17	1.21 ± 0.19	1.17 ± 0.19	1.14 ± 0.15
UniProt Q9UPN9 and related entries	–	–	–	–	–	–	0.995 ± 0.024	1.02 ± 0.029	1.06 ± 0.022	1.04 ± 0.036	1.06 ± 0.06	1.05 ± 0.044	1.08 ± 0.064	1.06 ± 0.088
MINPP1 (UniProt Q9UNW1)	–	–	–	–	–	–	0.976 ± 0.094	0.92 ± 0.058	0.929 ± 0.088	0.934 ± 0.071	0.923 ± 0.074	0.887 ± 0.071	0.882 ± 0.082	0.866 ± 0.041
UniProt Q9Y5P4 and related entries	–	–	–	–	–	–	0.996 ± 0.051	1.01 ± 0.039	0.948 ± 0.045	0.946 ± 0.037	0.941 ± 0.048	0.92 ± 0.033	0.941 ± 0.039	0.928 ± 0.022
THRAP3 (UniProt Q9Y2W1)	–	–	–	–	–	–	0.99 ± 0.027	1.08 ± 0.054	1.18 ± 0.047	1.21 ± 0.08	1.23 ± 0.059	1.34 ± 0.077	1.43 ± 0.033	1.51 ± 0.067

Record cards, from the list above. Values in the order: NP40-soluble protein abundance ([1]; concentration: 1mM)	NP40-soluble protein abundance ([1]; concentration: 2mM)	NP40-soluble protein abundance ([1]; concentration: 4mM)	NP40-soluble protein abundance ([1]; concentration: 6mM)	NP40-soluble protein abundance ([1]; concentration: 8mM)	NP40-soluble protein abundance ([1]; concentration: 10mM)	NP40-soluble protein abundance (guanosine triphosphate; concentration: 0.1mM)	NP40-soluble protein abundance (guanosine triphosphate; concentration: 0.5mM)	NP40-soluble protein abundance (guanosine triphosphate; concentration: 1mM)	NP40-soluble protein abundance (guanosine triphosphate; concentration: 2mM)	NP40-soluble protein abundance (guanosine triphosphate; concentration: 4mM)	NP40-soluble protein abundance (guanosine triphosphate; concentration: 6mM)	NP40-soluble protein abundance (guanosine triphosphate; concentration: 8mM)	NP40-soluble protein abundance (guanosine triphosphate; concentration: 10mM)
RUVBL1 (UniProt Q9Y265) as listed: –	–	–	–	–	–	1.04 ± 0.067	1.12 ± 0.11	1.09 ± 0.12	1.14 ± 0.16	1.18 ± 0.17	1.21 ± 0.19	1.17 ± 0.19	1.14 ± 0.15
SPIN1 (UniProt Q9Y657) as listed: –	–	–	–	–	–	0.968 ± 0.028	0.994 ± 0.067	0.972 ± 0.026	1 ± 0.061	1.03 ± 0.028	1.07 ± 0.055	1.09 ± 0.07	1.16 ± 0.051
